Data on one compound can be found in the M2OR odorant receptor database.

Common to all, as to details: stereoisomer not certain
One test has as its target T1, UniProt Q8VGT4.
T1 sequence (whole entry): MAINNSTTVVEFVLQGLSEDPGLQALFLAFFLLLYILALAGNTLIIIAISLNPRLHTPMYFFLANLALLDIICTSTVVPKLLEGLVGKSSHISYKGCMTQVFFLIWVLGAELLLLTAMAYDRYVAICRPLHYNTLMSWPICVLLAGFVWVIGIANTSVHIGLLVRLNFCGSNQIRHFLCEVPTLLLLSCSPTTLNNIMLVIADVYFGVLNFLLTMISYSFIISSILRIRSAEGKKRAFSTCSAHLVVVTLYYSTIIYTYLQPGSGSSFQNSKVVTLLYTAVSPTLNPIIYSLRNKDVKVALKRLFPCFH
The gist of the method:
(§1)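 Whether a receptor–molecule pair is responsive (active) rests on the original authors' judgment that its measured signal was statistically different from baseline. Pairs without that judgment are non-responsive (inactive). Sources used varied assay methods, commonly transient luciferase assays in mammalian cell lines.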

A further test has as its target T2, UniProt Q8VGU3.
T2 sequence (whole entry): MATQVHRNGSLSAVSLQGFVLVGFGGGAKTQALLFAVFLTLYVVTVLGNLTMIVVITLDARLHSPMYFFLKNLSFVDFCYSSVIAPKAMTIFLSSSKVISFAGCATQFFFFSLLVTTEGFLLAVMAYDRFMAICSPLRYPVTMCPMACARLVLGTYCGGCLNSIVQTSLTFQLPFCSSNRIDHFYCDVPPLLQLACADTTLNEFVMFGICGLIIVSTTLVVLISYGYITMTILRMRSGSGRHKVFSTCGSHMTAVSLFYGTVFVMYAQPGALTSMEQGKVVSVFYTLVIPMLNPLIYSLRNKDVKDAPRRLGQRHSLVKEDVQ
A digest of the protocol:
as §1

The target of another test is T3, UniProt Q8VGV1.
T3 sequence (whole entry): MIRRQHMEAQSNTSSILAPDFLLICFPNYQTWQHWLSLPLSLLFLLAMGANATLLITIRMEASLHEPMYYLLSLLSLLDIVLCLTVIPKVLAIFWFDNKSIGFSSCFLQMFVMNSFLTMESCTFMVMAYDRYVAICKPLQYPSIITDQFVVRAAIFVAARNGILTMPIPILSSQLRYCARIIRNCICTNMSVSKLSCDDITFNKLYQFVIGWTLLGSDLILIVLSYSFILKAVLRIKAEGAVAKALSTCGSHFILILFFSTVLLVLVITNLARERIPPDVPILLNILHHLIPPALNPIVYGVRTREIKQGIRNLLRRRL
A digest of the protocol:
as §1

In a further test the target is T4, UniProt Q8VGV7.
T4 sequence (whole entry): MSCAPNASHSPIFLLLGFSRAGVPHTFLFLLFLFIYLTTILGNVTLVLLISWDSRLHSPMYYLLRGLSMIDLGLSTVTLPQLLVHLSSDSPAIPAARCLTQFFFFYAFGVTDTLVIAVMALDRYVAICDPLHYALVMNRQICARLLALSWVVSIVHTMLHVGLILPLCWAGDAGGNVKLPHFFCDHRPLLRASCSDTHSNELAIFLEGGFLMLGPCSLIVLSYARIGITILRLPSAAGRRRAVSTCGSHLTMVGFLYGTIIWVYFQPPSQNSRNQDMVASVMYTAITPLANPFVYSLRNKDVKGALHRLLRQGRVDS
A digest of the protocol:
as §1

The target of a further test is T5, UniProt Q8VGW5.
T5 sequence (whole entry): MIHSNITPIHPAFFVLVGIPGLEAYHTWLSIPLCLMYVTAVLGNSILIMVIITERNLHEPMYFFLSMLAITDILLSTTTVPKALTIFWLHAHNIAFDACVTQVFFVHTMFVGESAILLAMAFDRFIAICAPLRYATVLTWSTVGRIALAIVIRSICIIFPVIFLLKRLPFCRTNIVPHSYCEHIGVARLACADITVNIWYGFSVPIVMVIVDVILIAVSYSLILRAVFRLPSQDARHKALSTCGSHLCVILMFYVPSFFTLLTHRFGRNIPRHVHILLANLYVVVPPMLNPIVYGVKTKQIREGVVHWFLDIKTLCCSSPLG
A digest of the protocol:
as §1

A further test concerns the target T6, UniProt Q8VGX3.
T6 sequence (whole entry): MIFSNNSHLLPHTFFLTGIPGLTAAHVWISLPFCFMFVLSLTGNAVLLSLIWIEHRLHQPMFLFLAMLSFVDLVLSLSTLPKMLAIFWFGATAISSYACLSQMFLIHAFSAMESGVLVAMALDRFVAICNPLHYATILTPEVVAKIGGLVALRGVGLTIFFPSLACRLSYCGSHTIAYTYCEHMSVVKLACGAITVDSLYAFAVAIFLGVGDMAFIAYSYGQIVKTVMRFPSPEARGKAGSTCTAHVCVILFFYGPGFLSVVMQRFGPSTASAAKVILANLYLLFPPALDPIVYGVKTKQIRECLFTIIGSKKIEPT
The gist of the method: as §1

The next test concerns the target T7, UniProt Q8VGX5.
T7 sequence (whole entry): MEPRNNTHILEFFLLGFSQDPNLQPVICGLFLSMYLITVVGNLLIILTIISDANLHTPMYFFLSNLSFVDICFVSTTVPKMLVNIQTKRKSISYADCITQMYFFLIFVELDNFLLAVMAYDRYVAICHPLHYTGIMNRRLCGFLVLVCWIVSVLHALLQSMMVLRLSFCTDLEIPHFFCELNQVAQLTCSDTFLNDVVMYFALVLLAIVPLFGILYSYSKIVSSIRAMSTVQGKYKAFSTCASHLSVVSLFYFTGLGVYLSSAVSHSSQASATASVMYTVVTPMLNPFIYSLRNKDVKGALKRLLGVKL
A digest of the protocol:
as §1

The target of a further test is T8, UniProt Q8VGX8.
T8 sequence (whole entry): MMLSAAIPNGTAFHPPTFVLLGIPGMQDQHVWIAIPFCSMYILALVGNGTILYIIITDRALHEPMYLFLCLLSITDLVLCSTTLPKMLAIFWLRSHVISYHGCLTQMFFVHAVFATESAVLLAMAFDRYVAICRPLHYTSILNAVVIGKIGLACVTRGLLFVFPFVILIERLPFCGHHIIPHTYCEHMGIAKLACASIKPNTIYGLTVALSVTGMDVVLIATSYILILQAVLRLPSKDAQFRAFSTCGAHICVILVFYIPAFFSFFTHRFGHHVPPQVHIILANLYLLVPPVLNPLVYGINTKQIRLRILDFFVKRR
The gist of the method:
as §1

The next test deals with T9, UniProt Q8VGY6.
T9 sequence (whole entry): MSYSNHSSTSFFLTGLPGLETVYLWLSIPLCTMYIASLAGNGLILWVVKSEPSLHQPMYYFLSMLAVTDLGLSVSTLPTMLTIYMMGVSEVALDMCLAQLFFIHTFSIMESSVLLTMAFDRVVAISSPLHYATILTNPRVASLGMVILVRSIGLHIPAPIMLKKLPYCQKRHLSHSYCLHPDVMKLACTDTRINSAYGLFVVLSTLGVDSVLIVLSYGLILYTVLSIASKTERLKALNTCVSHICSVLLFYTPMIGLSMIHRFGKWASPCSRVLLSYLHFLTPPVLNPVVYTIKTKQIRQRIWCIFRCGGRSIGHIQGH
A digest of the protocol: as §1

Another test has as its target T10, UniProt Q8VGZ2.
T10 sequence (whole entry): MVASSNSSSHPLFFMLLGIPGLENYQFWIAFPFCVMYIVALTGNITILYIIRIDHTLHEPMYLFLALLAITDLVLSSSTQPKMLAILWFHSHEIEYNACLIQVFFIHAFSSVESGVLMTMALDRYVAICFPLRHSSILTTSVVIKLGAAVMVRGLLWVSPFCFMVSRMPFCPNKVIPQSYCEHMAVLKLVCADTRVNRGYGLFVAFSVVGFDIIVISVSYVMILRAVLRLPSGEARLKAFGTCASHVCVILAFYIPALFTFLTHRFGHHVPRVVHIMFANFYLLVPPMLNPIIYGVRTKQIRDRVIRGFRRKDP
A digest of the protocol: as §1

Only a part is listed here, and it is no random draw. Calls are pooled over several reports, among them a noisy single-well screen.
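Note: active if original authors judged signal statistically different from baseline.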

`CCCCCCCCC=O`: the “odorant receptor agonist call” value with UniProt Q8VGT4, in the test with UniProt Q8VGU3, with UniProt Q8VGV7, with UniProt Q8VGW5, with UniProt Q8VGX3 and with UniProt Q8VGX5 was “inactive” in each case. Besides, in the test with UniProt Q8VGY6, the “odorant receptor agonist call” value was “inactive”. Also, the “odorant receptor agonist call” value with UniProt Q8VGV1, with UniProt Q8VGX8 and with UniProt Q8VGZ2 was “active” throughout.
